PubChem BioAssay AID1159578, Peter MacCallum Cancer Centre | 2015
This is a random part of about 18,000 deposited reagents. About 1,030 of all reagents (5.7%) were called active. 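Inactive calls also include pools with fewer than 3300 nuclei, whose migration was not assessed.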 The raw values are shown without normalisation.

Aim: 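Knock-downs that alter how fast lymphatic endothelial cells migrate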 (primary screen)
System: human lymphatic endothelial cells
Reagents: siRNA pool against human genes, 40 nM
Duration: 48 h after transfection
Read-out: 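Cells stained with dye and imaged after a scratch; covered wound area and nuclei counted, duplicates averaged, migration set against mock wells and turned into a robust z-score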
Direction: migration robust z-score: higher = faster migration into the scratch; migration relative to mock: higher = more scratch area covered than mock; nuclei per well: higher = more cells in the well
Rule for the call: 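Pools averaging fewer than 3300 nuclei are never called; remaining pools count as changed when migration robust z lies outside -2 to 2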
Meaning of the calls: active = migration changed; inactive = no migration change, or too few cells

The first 4 entries, to show the layout:
no.	gene	migration robust z-score	migration class with cell-count check	migration relative to mock	nuclei per well, duplicate mean	Call
1	DYDC1	0.77	migration z between -2 and 2; enough cells	1.08	7113	inactive
2	NXF5	0.29	migration z between -2 and 2; enough cells	0.96	3305	inactive
3	PYCR1	-1.08	migration z between -2 and 2; enough cells	0.6	5192	inactive
4	KATNAL1	0.02	migration z between -2 and 2; enough cells	0.81	6189	inactive

The listing, repeating the preview:
no.	gene	migration robust z-score	migration class with cell-count check	migration relative to mock	nuclei per well, duplicate mean	Call
1	DYDC1	0.77	migration z between -2 and 2; enough cells	1.08	7113	inactive
2	NXF5	0.29	migration z between -2 and 2; enough cells	0.96	3305	inactive
3	PYCR1	-1.08	migration z between -2 and 2; enough cells	0.6	5192	inactive
4	KATNAL1	0.02	migration z between -2 and 2; enough cells	0.81	6189	inactive
5	ZHX1	1.04	migration z between -2 and 2; enough cells	1	5539	inactive
6	KPNA2	0.13	migration z between -2 and 2; enough cells	0.83	6350	inactive
7	RAB11FIP2	-0.21	migration z between -2 and 2; enough cells	0.83	6334	inactive
8	PHKA1	1.27	migration z between -2 and 2; enough cells	1.05	5686	inactive
9	CCT2	0.18	migration z between -2 and 2; enough cells	0.84	4730	inactive
10	BRCC3	-0.34	migration z between -2 and 2; enough cells	0.8	5539	inactive
11	AGAP7P	-0.58	migration z between -2 and 2; enough cells	0.74	5616	inactive
12	DIRAS3	-0.13	migration z between -2 and 2; enough cells	0.78	5736	inactive
13	CCDC83	0.29	migration z between -2 and 2; enough cells	0.96	5612	inactive
14	SPOCK1	-0.33	migration z between -2 and 2; enough cells	0.8	6374	inactive
15	SERPINE1	-0.24	migration z between -2 and 2; enough cells	0.76	5178	inactive
16	CBLL1	1.42	migration z between -2 and 2; enough cells	1.08	6558	inactive
17	CEP126	-0.61	migration z between -2 and 2; enough cells	0.73	5832	inactive
18	SLC9C1	0.04	migration z between -2 and 2; enough cells	0.89	5922	inactive
19	MYBPH	-1.84	migration z between -2 and 2; enough cells	0.4	4266	inactive
20	RPL23A	-2.77	under 3300 nuclei; migration not judged	0.17	2904	inactive
21	PRSS23	1.68	migration z between -2 and 2; enough cells	1.13	5014	inactive
22	LANCL2	-0.01	migration z between -2 and 2; enough cells	0.88	5309	inactive
23	MIS18BP1	0.86	migration z between -2 and 2; enough cells	1.1	6734	inactive
24	DOK2	-1.82	migration z between -2 and 2; enough cells	0.42	6506	inactive
25	KLHL31	0.9	migration z between -2 and 2; enough cells	1.12	5780	inactive
26	SLC6A16	-0.68	migration z between -2 and 2; enough cells	0.68	6092	inactive
27	ERICH6	-1.44	migration z between -2 and 2; enough cells	0.52	6282	inactive
28	FER1L5	-0.48	migration z between -2 and 2; enough cells	0.76	5715	inactive
29	KDM4D	0.3	migration z between -2 and 2; enough cells	0.97	5230	inactive
30	ZNF652	1.38	migration z between -2 and 2; enough cells	1.24	7620	inactive
31	GLRB	0.08	migration z between -2 and 2; enough cells	0.82	5642	inactive
32	MAP3K7	-0.44	migration z between -2 and 2; enough cells	0.72	3920	inactive
33	SLC27A2	-0.76	migration z between -2 and 2; enough cells	0.66	6290	inactive
34	CDNF	-0.17	migration z between -2 and 2; enough cells	0.84	8104	inactive
35	ALKAL2	-1.17	migration z between -2 and 2; enough cells	0.58	5446	inactive
36	SUGCT	0.13	migration z between -2 and 2; enough cells	0.92	5474	inactive
37	RTCB	0.48	migration z between -2 and 2; enough cells	1.01	6568	inactive
38	KIAA0930	1.35	migration z between -2 and 2; enough cells	1.23	4570	inactive
39	MRGPRD	-0.57	migration z between -2 and 2; enough cells	0.7	7214	inactive
40	SLC44A4	1.38	migration z between -2 and 2; enough cells	1.24	5666	inactive
41	CHAF1A	-0.86	migration z between -2 and 2; enough cells	0.66	4096	inactive
42	MCHR1	-0.8	migration z between -2 and 2; enough cells	0.65	5518	inactive
43	TLE1	-0.05	migration z between -2 and 2; enough cells	0.8	5065	inactive
44	ATP6V1G1	-1.84	migration z between -2 and 2; enough cells	0.45	5668	inactive
45	TXNDC8	-0.26	migration z between -2 and 2; enough cells	0.76	5709	inactive
46	NSD2	0.36	migration z between -2 and 2; enough cells	0.88	4560	inactive
47	RPP25	-0.7	migration z between -2 and 2; enough cells	0.71	5321	inactive
48	GALNT6	0.7	migration z between -2 and 2; enough cells	0.94	5054	inactive
49	PATE2	-0.16	migration z between -2 and 2; enough cells	0.84	6520	inactive
50	UBE2W	1.25	migration z between -2 and 2; enough cells	1.04	4800	inactive
51	POPDC1	0.42	migration z between -2 and 2; enough cells	0.99	7233	inactive
52	PCDH20	0.4	migration z between -2 and 2; enough cells	0.98	6284	inactive
53	PLP1	-1.88	migration z between -2 and 2; enough cells	0.4	4976	inactive
54	GCOM1	-0.43	migration z between -2 and 2; enough cells	0.77	4634	inactive
55	APOC2	0.72	migration z between -2 and 2; enough cells	0.94	4718	inactive
56	MNS1	-0.62	migration z between -2 and 2; enough cells	0.72	5994	inactive
57	RETSAT	1.73	migration z between -2 and 2; enough cells	1.34	6686	inactive
